Experimental data published in US20250129140A1, “ANTI-HCMV ANTIBODIES AND ANTIGEN-BINDING FRAGMENTS THEREOF” (ICAHN SCHOOL OF MEDICINE AT MOUNT SINAI, priority 2021, published 2025).

System: gH (TB40/E strain) peptides
Assay: PEPperCHIP cyclic gH peptide microarray epitope mapping
Type: binding, Human cytomegalovirus
Conditions: peptides of 7, 10 and 13 aa

B1: 9A12: anti-HCMV gH/gL monoclonal antibody, fusion 2; VH SEQ ID NO:59, VL SEQ ID NO:60; chimeric and fully human IgG1 versions (antibody, V domains shown)
VH: EVQLVESGGVLVQPGGSLRLSCAASGFTFSSHEMNWVRQAPGKGLEWISYISSTGSTIYDADSVKGRFTISRDNAKNSLYLQMNSLRAEDTAVYYCARSSGWYRNYSYGMDVWGQGTTVTVSS
VL: DIQMAQSPSSLSASVGDRVTITCRASQGIYNYLAWFQQKPGKAPKSLIYAASSLQTGVPSKFSGSGSGTDFTLTISNLQPEDFATYYCQQYNSFPRTFGQGTKVEIK
modifications: IgG1 constant regions
notes: anti-HCMV gH/gL monoclonal antibody, fusion 2; chimeric and fully human IgG1 versions
For B1, the “gH peptide bound, domain 1” value was 187HRPHF191 and the “gH peptide(s) bound, domain 2” value was 426 […] 438.

B2: 15G11: anti-HCMV gH/gL monoclonal antibody, fusion 1; VH SEQ ID NO:52, VL SEQ ID NO:53; chimeric and fully human IgG1 versions (antibody, V domains shown)
VH: QVQLQESGPGLVKPSQTLSLTCTVSGGSISSGYYYWNWIRQHPGKGLECIGYIYYSGTTYYNPSLKSRLFISVDTSKNQFSLKLRSVTAADTAVYYCARGGLGAFDIWGQGTMVTVSS
VL: EIVLTQSPGTLSLSPGERATLSCRASQSVSSSYLAWYQQKPGQAPRLLIYGASSRAPGIPDRFSGTGSGTDFTLTISRLEPEDFAVYYCQQYGISPLTFGGGTKVEIK
modifications: IgG1 constant regions
notes: anti-HCMV gH/gL monoclonal antibody, fusion 1; chimeric and fully human IgG1 versions
In the case of B2, the “gH peptide bound, domain 1” value is reported as 187HRPHF191 and the “gH peptide(s) bound, domain 2” value is reported as 426 […] 438.
